Laboratory results reported in PubChem BioAssay AID540276 (National Center for Advancing Translational Sciences (NCATS), 2011).
The whole screen tested about 300,000 compounds, of which about 5,400 (1.8%) were called active. This list was built around the results that the source calls inconclusive (neither active nor inactive); the mix of calls is not that of the screen. The call rests on the fitted dose curve; tested in HEK293 cells. Where the call is inconclusive, the potency comes from a doubtful curve fit.

assay: qHTS for inhibitors of binding or entry into cells for Marburg Virus; settings: Marburg virus pseudotyped entry inhibition, cell reporter; activity change, negative = inhibition: at 37.8 µM (top of the series) unless noted
On the % scale 0 is the no-effect control and ±100 the full control effect; potency means the concentration at half of the fitted maximal effect.

SMILES | Potency | activity change, negative = inhibition
COc1cccc(OCc2ccc(C(=O)NCC3CCCO3)cc2)c1 (stereo not drawn) | inconclusive: 1.26 µM [activator, single point] | –
Cc1ccc2c(=O)cc(C(=O)Nc3ccc(S(=O)(=O)N(C)Cc4ccccc4)cc3)oc2c1C | – | inactive: -14% [at 46.1 µM]
CC1(C)Cc2c(cnn2-c2ccccc2)C(NC(=O)C2(C(N)=O)CC2)C1 (stereo not drawn) | inconclusive: 22.4 µM [activator, single point] | –
COc1ccc2oc(C(=O)c3ccccc3)c(NC(=O)CN3CCN(C)CC3)c2c1 | inactive | –
Cc1[nH]c(=O)[nH]c(=O)c1S(=O)(=O)Nc1ccc(Cl)c([N+](=O)[O-])c1 | – | inactive: 5.55%
CN(C)S(=O)(=O)c1cccc(NC(=O)COC(=O)c2cn(-c3ccccc3)nc2-c2ccccc2)c1 | inconclusive: 32.6 µM [inhibitor, single point] | –
CC(C)Cn1c(/C=C/c2ccccc2)nc2ccccc21 | inconclusive: 3.55 µM [activator, partial curve, poor fit] | –
COc1ccc(C(=O)N/N=C/c2cc(Br)ccc2O)cc1OC | active: 8.91 µM | –
Clc1ccc(Cn2nnc(-c3ccc(CN4CCOCC4)cc3)n2)cc1 | inconclusive: 11.6 µM [inhibitor, single point] | –
CC(C)NC(=O)N1c2ccccc2Sc2ccccc21 | inconclusive: 0.794 µM [inhibitor, full curve, poor fit] | –
COc1ccc(OC)c(S(=O)(=O)N2CCCc3ccccc32)c1 | inconclusive: 7.94 µM [inhibitor, partial curve, poor fit] | –
Cn1c(=O)c2c(-c3ccc(Br)cc3)n(CCc3ccccc3)cc2n(C)c1=O | inconclusive: 35.5 µM [inhibitor, single point] | –
Cc1cccc(NC(=S)NNc2ncc(C(F)(F)F)cc2Cl)c1 | inconclusive: 35.5 µM [inhibitor, single point] | –
COc1cc(CC(=O)N(c2ccccc2)c2nc(C)cs2)cc(OC)c1OC | – | inactive: 5.47% [at 46.1 µM]
COc1ccc(Cl)cc1NC(=O)c1cccc(NC(=O)CCC(=O)O)c1 | inconclusive: 20.6 µM [inhibitor, single point] | –
CCc1cccc(C)c1NC(=O)Cn1cc2c(n1)CCCC2 | – | inactive: 14.4% [at 46.1 µM]
Cc1cc(C)c(C)c(S(=O)(=O)N2CCN(CC(=O)c3c(N)n(Cc4ccccc4)c(=O)n(C)c3=O)CC2)c1C | inconclusive: 29.1 µM [inhibitor, single point] | –
CC(C)(CO)Nc1nc(N2CCCC2)nc(N2CCCC2)n1 | inconclusive: 20.6 µM [inhibitor, partial curve, poor fit] | –
Cc1ccc(NC(=O)c2sccc2C)cc1[N+](=O)[O-] | inconclusive: 2.31 µM [activator, partial curve] | –
NC(=O)c1cc(-c2csc(-c3cccnc3)n2)ccc1O | inconclusive: 1 µM [inhibitor, partial curve, poor fit] | –
CCN(Cc1ccccc1)C(=O)CCc1c(C)nc2c(c(C)nn2-c2ccc(C)c(C)c2)c1C | – | inactive: 14.2% [at 46.1 µM]
CC1CC=C(O)C12OCC(C)(C)CO2 (stereo not drawn) | inconclusive: 35.5 µM [inhibitor, single point] | –
O=C1[C@@H]2CSCN2C(=O)CN1CCc1cccc(F)c1 | inconclusive: 20.6 µM [activator, single point] | –
CCOc1ccc(C(=O)N2CCCCCC2)cc1 | inconclusive: 5.01 µM [activator, single point] | –
CCOC(=O)c1ccc(S(=O)(=O)N2CCN(C(=O)CSc3nc4ccccc4o3)CC2)cc1 | inconclusive: 6.31 µM [activator, single point] | –

SMILES | Potency | activity change, negative = inhibition
Cn1c(CNC(=O)c2ccco2)nnc1SCC(=O)Nc1ccccc1Cl | inconclusive: 3.55 µM [activator, single point] | –
CC1=C(C(=O)Nc2ccccn2)C(c2ccc(Cl)cc2)NC(=S)N1 (stereo not drawn) | – | inactive: 7.76% [at 46.1 µM]
COc1ccc(CN2CCCC(CO)(Cc3cccc(Cl)c3)C2)cc1OC (stereo not drawn) | inconclusive: 10 µM [inhibitor, partial curve, poor fit] | –
NC(=S)NNC(=O)c1cc(C(F)(F)F)cc(C(F)(F)F)c1 | inconclusive: 6.31 µM [activator, single point] | –
Cc1cc(Br)ccc1NC(=O)CNC(=O)CSc1nccn1C | inconclusive: 2.24 µM [activator, partial curve] | –
Cn1ncc(Cl)c1C(=O)Nc1cccc(Cl)c1 | – | inactive: 11.6%
O=C1c2cccnc2C(=O)N1CO | – | inactive: -12.4%
COC(=O)CSc1nnnn1-c1ccccc1 | inconclusive: 12.6 µM [activator, single point] | –
CCOc1ccc(CCNC(=O)c2cc(C)on2)cc1OCC | – | inactive: 0.0692% [at 46.1 µM]
CCOC(=O)c1c(C)nc(-c2ccccc2)nc1NC(=O)CC | inconclusive: 6.31 µM [activator, single point] | –
O=C(c1ccc2nc(-c3ccco3)c(-c3ccco3)nc2c1)N1CCC2(CC1)OCCO2 | – | inactive: 4.11%
CN1CCN(C(=O)c2cc(Cl)ccc2Cl)CC1 | – | inactive: -2.53%
Cc1cc(C)c2nc(C)cc(Nc3ccc(C(=O)NCCO)cc3)c2c1 | active: 11.2 µM | –
CCNc1nc(Oc2ccc(C(=O)OC)cc2)nc(N(C)C)n1 | – | inactive: 3.97%
CN(C)/C=C/C(=O)c1cnc(-c2ccccn2)s1 | – | inactive: -15.1% [at 46.1 µM]
CC(C)(C)n1ncc2c(=O)n(CC(=O)N3CCCc4ccccc43)cnc21 | – | inactive: 7.38%
NCCc1cnc[nH]1 | inconclusive: 0.794 µM [inhibitor, single point] | –
COc1ccc(C2=Nn3c(nnc3-c3ccncc3)SC2)cc1 | inconclusive: 14.6 µM [inhibitor, partial curve, poor fit] | –
C(=C\c1ccccc1)/CN1CCN(c2ncnc3c2oc2ccccc23)CC1 | inconclusive: 20.6 µM [inhibitor, single point] | –
CCNC(=S)N(CCc1ccc(S(N)(=O)=O)cc1)C1CC(=O)N(c2ccccc2)C1=O (stereo not drawn) | inconclusive: 10 µM [inhibitor, partial curve] | –
CCN(C(=O)CN1C(=O)COc2ccc(S(=O)(=O)N3CCCCCC3)cc21)c1cccc(C)c1 | inconclusive: 35.5 µM [inhibitor, single point] | –
Cc1c(NCc2cccnc2)cccc1C(=O)O | – | inactive: 8.73% [at 46.1 µM]
Cn1c(=O)n(C)c2cc(NC(=O)CCl)ccc21 | inconclusive: 20.6 µM [inhibitor, partial curve, poor fit] | –
COc1cccc(C(=O)NCCN2C(=O)S/C(=C/c3cccs3)C2=O)c1OC | inconclusive: 0.631 µM [inhibitor, single point] | –
N#C/C(=C\c1cccnc1)c1nc2c(s1)CCCC2 | inconclusive: 35.5 µM [activator, single point] | –

Random excerpt: 4 entries already listed
SMILES | Potency | activity change, negative = inhibition
C(=C\c1ccccc1)/CN1CCN(c2ncnc3c2oc2ccccc23)CC1 | inconclusive: 20.6 µM [inhibitor, single point] | –
CCOC(=O)c1c(C)nc(-c2ccccc2)nc1NC(=O)CC | inconclusive: 6.31 µM [activator, single point] | –
Cc1ccc(NC(=O)c2sccc2C)cc1[N+](=O)[O-] | inconclusive: 2.31 µM [activator, partial curve] | –
Cc1cc(C)c(C)c(S(=O)(=O)N2CCN(CC(=O)c3c(N)n(Cc4ccccc4)c(=O)n(C)c3=O)CC2)c1C | inconclusive: 29.1 µM [inhibitor, single point] | –

Remaining list, next part

SMILES | Potency | activity change, negative = inhibition
CCc1ccc(-c2csc(NC(=O)Oc3ccccc3)n2)cc1 | – | inactive: 38%
CC1(C)CC(=O)c2c(nn(-c3ccccc3)c2-c2ccncc2)C1 | inconclusive: 10.3 µM [inhibitor, partial curve, poor fit] | –
O=C(c1ccc(S(=O)(=O)c2cccc(Cl)c2)c([N+](=O)[O-])c1)N1CCN(Cc2ccccc2)CC1 | inconclusive: 25.9 µM [inhibitor, single point] | –
O=C(CNC(=O)c1ccc(Br)o1)Nc1ccncc1 | – | inactive: -21% [at 46.1 µM]
CCOC(=O)C1CCN(C2CC(=O)N(c3ccc(OCC)cc3)C2=O)CC1 (stereo not drawn) | – | inactive: 7.83%
Cc1cccn2c(=O)c3cc(C(=O)NC4CCCC4)c(=N)n(CCCN4CCOCC4)c3nc12 | active: 3.55 µM | –
CCOc1ccc(-c2cc(C(=O)N3CCCC3)c3ccccc3n2)cc1 | inconclusive: 6.31 µM [activator, full curve, poor fit] | –
CN1CCC(N(C)C(=O)c2ccccc2Nc2ccc(SC(F)F)cc2)CC1 | inconclusive: 29.1 µM [inhibitor, single point] | –
Cc1ccc([N+](=O)[O-])cc1NC(=O)CSc1nncn1-c1ccccn1 | – | inactive: 5.83% [at 46.1 µM]
Cc1ccc(C(C)C)c(OCC(=O)Nc2ccccc2N2CCN(C)CC2)c1 | inconclusive: 35.5 µM [inhibitor, single point] | –
Cc1ccc(-n2c(=O)c3c4c(sc3n(Cc3ccccc3C)c2=O)CCC4)cc1C | – | inactive: -9.26% [at 46.1 µM]
CCn1c(C)c(C(=O)NCCc2ccccc2)c2cc(OC)ccc21 | – | inactive: -28.5%
CC1(C)Cc2c(C#N)c(SCc3ccccc3)nc(N3CCOCC3)c2CO1 | inconclusive: 11.2 µM [inhibitor, partial curve, poor fit] | –
CCc1cc2cc3c(cc2nc1SCC(=O)N1CCN(C(=O)c2ccco2)CC1)OCO3 | inconclusive: 31.6 µM [inhibitor, single point] | –
O=C(CCN1CCc2ccccc2C(O)(c2ccccc2)C1)c1ccc2c(c1)OCCO2 (stereo not drawn) | inconclusive: 28.2 µM [inhibitor, single point] | –
CC1=C(C(=O)OCc2ccccc2)C(c2ccccc2Cl)NC(=O)N1C (stereo not drawn) | – | inactive: -0.322%
Cn1cnnc1SCc1nnc(-c2ccccc2Br)o1 | inconclusive: 12.6 µM [activator, partial curve, poor fit] | –
Cc1ccc(NC(=O)Nc2nnc(N(C)C3CCCCC3)s2)c(Cl)c1 | – | inactive: 1.01% [at 46.1 µM]
CCCCC(=O)Nc1ccc(C(=O)Nc2ccc3c(c2)OCO3)cc1 | – | inactive: 7.05%
O=C(Nc1cnc2ccccc2c1)c1cccc(-n2cnnn2)c1 | – | inactive: 12%
CCCc1[nH][nH]c(=O)c1C(c1cccc(Cl)c1)C(C#N)C#N (stereo not drawn) | inconclusive: 29.1 µM [inhibitor, single point] | –
COc1ccc(OC)c(NC(=O)C2CCN(c3cc(-c4ccccc4)nc4ncnn34)CC2)c1 | inconclusive: 32.6 µM [inhibitor, single point] | –
Cc1ccc(OCC(=O)Nc2cccnc2Cl)cc1C | – | inactive: 27.4% [at 46.1 µM]
